About 170 (0.05%) of roughly 340,000 compounds were called active. Inconclusive means that the source gave no clear call. Such entries were picked first, then a sample of the others. The call rests on the fitted dose curve; in most records, active means well fitted inhibition curve with a large enough effect in the signal ratio, with a control signal flat (not every such curve was filed as active); inconclusive means small, poorly fitted or top-dose-only effect, or effect the other way, or a change in a side signal; inactive means flat fitted curve, though single readings scatter; the % refers to the signal ratio. Where the call is inconclusive, the potency comes from a doubtful curve fit.
Assay: qHTS Assay to Find Inhibitors of Chronic Active B-Cell Receptor Signaling;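 on activity change, negative = inhibition: plate controls were basal doxycycline-induced cells for no effect and cells given 10 µM MG132 for full effect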
Details: ABC-DLBCL IkBa-CBG/CBR reporter, luminescence ratio (green luciferase fused to IkBa over red control in TMD8 lymphoma cells), 4 h; activity change, negative = inhibition: at 46.1 µM (top of the series)
Outline: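 Concentration-response series (up to 46 uM) were applied to TMD8 dual-reporter cells for 4 h at 37C with doxycycline. Green/red ratio, after filter-overlap correction, defined %Activity; red signal alone was normalised to basal cells and zero luminescence.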
In the case of Cc1sc2nc(CN(C(=O)NC3CCCCC3)C3CCCCC3)[nH]c(=O)c2c1C, the activity change, negative = inhibition is reported as “inactive”.
For CN1CCN(C(=O)CCCN2C(=O)/C(=C/c3ccc(Cl)cc3)SC2=S)CC1, the Potency was inconclusive: 18.4 µM [falling, partial curve].
In the case of CCN1CCc2c(OCc3ccccc3)cccc2C1=O, the activity change, negative = inhibition is reported as inconclusive: -7.12%.
With Cc1ccc(/C=C(\C#N)C(=O)NC(C)C)o1 the activity change, negative = inhibition was inconclusive: -0.959%.
In the case of CCC(/C=C1\Sc2ccc(OC)cc2N1CC)=C\c1sc2ccc(OC)cc2[n+]1CCCS(=O)(=O)[O-], the Potency is reported as inconclusive: 2.82 µM [rising, partial curve].
With COc1ccc(/C=C2\SC(=O)N(CCC(=O)NC3CCS(=O)(=O)C3)C2=O)cc1 (stereo not drawn) the activity change, negative = inhibition was inconclusive: 457%.
In the case of O=C(NC(=S)Nc1ccc(Oc2ccc(Cl)cc2)cc1)c1ccccc1, the activity change, negative = inhibition is reported as “inactive”.
With O=C1[C@@H]2Cc3c([nH]c4ccccc34)C(c3cccc(Br)c3)N2C(=O)CN1C1CCN(Cc2ccccc2)CC1 (stereo partly drawn) the activity change, negative = inhibition was inconclusive: -16.8%.
In the case of COc1ccc(N2Cc3cccc(C(=O)O)c3C2=O)cc1, the activity change, negative = inhibition is reported as inconclusive: 8.6%.
With CC(=O)c1cccc(NC(=O)C2CCN(C(=O)c3cccs3)CC2)c1 the activity change, negative = inhibition was inconclusive: 6.45%.
For Cc1ccc2nc(-c3cccc(Br)c3)cc(C(=O)NCC3CCCO3)c2c1 (stereo not drawn), the activity change, negative = inhibition was inconclusive: 4.21%.
With C[C@H]1C(=O)N(c2ccccc2)[C@@H]1c1ccccc1 the activity change, negative = inhibition was inconclusive: 11.4%.
For COc1ccc(-c2cc(C(F)(F)F)nc(SCC(=O)N(C)Cc3cn(C)nc3C)n2)cc1OC, the activity change, negative = inhibition was inconclusive: 0.585%.
With COc1ccc(-c2nn(CCC(=O)O)cc2/C=N/NC(N)=S)cc1 the activity change, negative = inhibition was “inactive”.
With CSc1nc(-c2ccccc2)nc(N2CCN(C)CC2)c1C(C)=O the activity change, negative = inhibition was inconclusive: -11.4%.
With CC(=O)N[C@@H](Cc1c[nH]c2ccccc12)C(=O)OCC(=O)Nc1ccc(Cl)c(S(=O)(=O)N(C)C)c1 the activity change, negative = inhibition was inconclusive: -0.716%.
For CN1CCN(S(=O)(=O)c2ccc(C(F)(F)F)cc2)C(c2ccccc2)C1 (stereo not drawn), the activity change, negative = inhibition was “inactive”.
In the case of Cc1cc(C(=O)N2CCCC(C(=O)c3ccc(Oc4ccccc4)cc3)C2)n[nH]1 (stereo not drawn), the activity change, negative = inhibition is reported as “inactive”.
In the case of c1ccc(-c2noc(CSc3nc4ccccc4o3)n2)cc1, the activity change, negative = inhibition is reported as inconclusive: 9.55%.
In the case of CCC(C)[C@H](NC(=O)NCCC1=CCCCC1)C(=O)O (stereo partly drawn), the activity change, negative = inhibition is reported as “inactive”.
With Cn1c(=O)n(CCOc2ccc(Cl)cc2Cl)c2ccccc21 the activity change, negative = inhibition was inconclusive: 23.1%.
For O=C(CNS(=O)(=O)c1ccccc1)NCC(=O)OCc1ccc(Cl)cc1, the activity change, negative = inhibition was “inactive”.
For Cc1ccc(Cl)cc1-n1ncc2c(NCCc3ccccc3)ncnc21, the activity change, negative = inhibition was inconclusive: 13.5%.
For CC1(C)CC(=O)C2=C(C1)O[C@@]1(c3ccsc3)Cc3cc(C#N)ccc3C2O1, the activity change, negative = inhibition was inactive: 11.3% [at 9.22 µM].
In the case of Cc1cccc(CSc2cn(CC(=O)N3CCOCC3)c3ccccc23)c1, the Potency is reported as inconclusive: 18.4 µM [falling, partial curve].
In the case of C=CCN(CC=C)C(=S)NC(=O)Cc1cccc2ccccc12, the Potency is reported as inconclusive: 25.1 µM [falling, single point].
For CC1C(=O)N2CCCc3cc(NC(=O)C4CCCCC4)cc1c32 (stereo not drawn), the Potency was inconclusive: 23.1 µM [falling, single point].
With COc1ccccc1Oc1cc(C#N)c(C#N)cc1-n1nnc2ccccc21 the activity change, negative = inhibition was “inactive”.
In the case of c1ccc(CSC2=NNC(c3ccccn3)S2)cc1 (stereo not drawn), the activity change, negative = inhibition is reported as inconclusive: 0.861%.
For CC(C)Cc1ccc(/C=C/C(=O)N2CCOCC2)cc1, the activity change, negative = inhibition was inconclusive: 0.507%.
In the case of COC(=O)CC1C(=O)NCCN1C(=O)CSc1nnnn1-c1ccc(Cl)cc1 (stereo not drawn), the activity change, negative = inhibition is reported as inconclusive: 7.55%.
With c1ccc2[nH]c(-c3nc4ccccc4[nH]3)nc2c1 the Potency was inconclusive: 18.4 µM [falling, partial curve].
In the case of Nc1nc(-c2ccc3ccccc3c2)cs1, the activity change, negative = inhibition is reported as inconclusive: 12.5%.
With CCOc1ccc2nc(NC(NC(C)=O)(C(=O)OC)C(F)(F)F)sc2c1 (stereo not drawn) the activity change, negative = inhibition was inconclusive: 2.69%.
For CCOC(=O)c1c(-c2ccccc2)csc1NC(=O)CCN1CCOCC1, the activity change, negative = inhibition was inconclusive: -27.7%.
For CSCc1ccc(C(=O)NCC(c2cccs2)N2CCOCC2)cc1 (stereo not drawn), the activity change, negative = inhibition was “inactive”.
With COCCCNC(=O)/C=C/c1ccc(Cl)cc1Cl the activity change, negative = inhibition was “inactive”.
With O=C(COc1ccccc1)N1CCN=C1SCc1ccccc1 the Potency was inconclusive: 35.5 µM [falling, single point].
With CN1CCN(c2ccc(NC(=O)c3cccc(OCc4ccccc4)c3)cc2)CC1 the activity change, negative = inhibition was inconclusive: -7.03%.
With CC1=NN(C(N)=S)C(=O)C1N=Nc1ccc(F)cc1 (stereo not drawn) the activity change, negative = inhibition was inconclusive: 0.253%.
With C=C(C)C(=O)OCCCCCCOc1ccc(C(=O)O)cc1 the Potency was inconclusive: 20.6 µM [falling, partial curve].
With Clc1ccc(C2=Nn3c(nnc3-c3n[nH]c4c3CCC4)SC2)cc1Cl the Potency was inconclusive: 5.8 µM [falling, full curve, poor fit].
In the case of Cc1nn(Cc2ccccc2)c(Cl)c1C(=O)NCCc1ccccc1, the activity change, negative = inhibition is reported as inconclusive: 15.1%.
In the case of Cc1c(C(=O)N/N=C/c2ccccc2)[nH]c2c([N+](=O)[O-])cccc12, the Potency is reported as inconclusive: 0.562 µM [falling, full curve].
For Nc1nc(N(Cc2ccccc2)Cc2ccccc2)nc(C(F)(F)F)n1, the activity change, negative = inhibition was inconclusive: 2.77%.
With Cc1cccnc1NC(=O)C(c1ccccc1)c1ccccc1 the activity change, negative = inhibition was inconclusive: -6.68%.
With N#Cc1c(N)nc2c(c1-c1ccc3c(c1)OCO3)CCCCCC2 the activity change, negative = inhibition was inconclusive: -2.17%.
In the case of Cc1oc2cc(Br)c(O)c(Br)c2c1C(=O)c1ccccc1, the activity change, negative = inhibition is reported as inconclusive: 9.85%.
In the case of CCC1S/C(=N/N=C/c2ccco2)N(Cc2ccc(F)cc2)C1=O (stereo not drawn), the activity change, negative = inhibition is reported as “inactive”.
For O=C(NCc1cccnc1)C(=O)c1c[nH]c2ccccc12, the Potency was inconclusive: 22.4 µM [falling, partial curve].
In the case of CSc1nsc(SCC(=O)NC2CCCCC2)n1, the Potency is reported as inconclusive: 32.6 µM [falling, partial curve, poor fit].
With COc1ccc(C2/C=C\CN(Cc3ccncc3)CC(=O)N2Cc2ccc(F)cc2)cc1 (stereo not drawn) the activity change, negative = inhibition was “inactive”.
For S=c1[nH]nc(-c2ccc3c(c2)OCO3)n1-c1ccccc1, the activity change, negative = inhibition was “inactive”.
Potency means the concentration at half of the fitted maximal effect.
